The target of this assay is amyloid beta in brain sections of a human Alzheimer's disease case (human) (UniProt P05067). The assay can be described thus: immunohistochemistry on human Alzheimer's disease brain sections with supernatant of transduced myoblasts.

The chains behind the UniProt entries cited, without tags or fusion partners. Residues count along the entry.
UniProt P05067, residues 672-713: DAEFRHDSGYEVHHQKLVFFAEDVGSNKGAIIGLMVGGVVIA

Results are given in words; binding and its absence hold for the method and conditions named. Some results given as binding are weak or reduced against the parent protein; the word gives no strength.

B1: myoblast-produced anti-amyloid beta IgG (gantenerumab variable regions in a human IgG1 heavy chain and human kappa light chain backbone) (antibody, V domains shown)
VH: QVELVESGGGLVQPGGSLRLSCAASGFTFSSYAMSWVRQAPGKGLEWVSAINASGTRTYYADSVKGRFTISRDNSKNTLYLQMNSLRAEDTAVYYCARGKGNTHKPYGYVRYFDVWGQGTLVTVSS
VL: DIVLTQSPATLSLSPGERATLSCRASQSVSSSYLAWYQQKPGQAPRLLIYGASSRATGVPARFSGSGSGTDFTLTISSLEPEDFATYYCLQIYNMPITFGQGTKVEIKR
As for B1, the binding entry is “binds”.

Values taken from US20220265727A1.
